Legend:
[1] = in vivo; cited from earlier work
[2] = cynomolgus monkey, in vivo
Description: Monkey experiments were conducted internally or at the Drug Safety Research Laboratories in Shin Nippon Biomedical Laboratories via consignment to Axcelead Drug Discovery Partners. […] Detailed dosage regimen for each compound is summarized in Supplemental Table 3. […] Each cassette was assigned to a separate group of monkeys. The vehicle was saline or a mixture of dimethylacetamide and 1,3-butanediol (1:1, v/v). At the end of the 6-h infusion or 1 h after intravenous bolus administration, the monkeys were anesthetized, and whole blood, CSF, and whole brain were collected. Blood was collected using the anticoagulant, heparin sodium, and immediately centrifuged; the plasma was transferred to polypropylene tubes. Then, ketamine hydrochloride (50 mg/mL; 0.2 mL/kg; 10 mg/kg) was intramuscularly administered. […] The residue was reconstituted in dilution solution (mobile phase A/B (7:3, v/v)), and the supernatant was analyzed by LC-MS/MS.
Each sample (50 μL) was mixed with the working solution (the mixture of dimethyl sulfoxide and acetonitrile (2:8, v/v)), and the protein was precipitated by adding 150 μL acetonitrile containing internal standards (5 ng/mL alprenolol and diclofenac). […] The residue was reconstituted in mobile phase A/B (7:3, v/v)), and the supernatant was analyzed by LC-MS/MS. […]

[3] = in vivo; cited from earlier work; remark: listed apart in the source

## CCn1cc(C(=O)O)c(=O)c2cc(F)c(N3CCN(C)CC3)cc21 [Pefloxacin]
[1]
  Kp,uu,brain Rat: 0.199
[2]
  Kp,uu,brain Monkey: 0.452
[3]
  Kp,uu,CSF Human: 0.743
